# The supplement of paper PMC8728848
# Some of the results follow.
# B1: LERP (Drosophila melanogaster), B7Z0Q8 (protein)
# chain: MRCSLQKDCAAPTQENFRQMRFPIVISLLLLLFCSGESVAADAANQLKFSTTECKLKEPIYGSTFDFSGLHSDLAHVVKSMNIGGDQFEFNICGNLSRTCNGESNVAACLKRQGKEYILGRQHELFYNNGNMFLKYKSGAKCDNGTADKPNYQLHVMFSCDYTLDAQPMHVTPYANEVCSFYISYRTPLACLSIPEGLQSNSCRVGDTKSNGTFDLMPLSDSNYHTSNRQGAFFVINVCKPVLYGENSMCPAGSSVCLFDSKATNPKERFINFGNVQTHPVVEKGQLLLRHESPTPCAKNSSANYTSVIYFSCDKFIRNAHPEFAGLGADSCTYQFNFATPLACNDLKPCTAFTSTNELLDLSSLSSKPARTLLKDGKNYTIAVCAHAGAPCQENGGACYEQNSTTISLGNSNSQLRFNQTGSLYLLYEDGAECSTATGMRRWSTKIEFVCANNATKDNGASTAGGSDSLKIIEDSNCQLLIQYQTPLACREPIRCKATTYVDHTNDGLGSSGDELIDLTPLISATDNYEARVELPASMEHLVPKTTKFFLNVCRPLVPKYQLGCAGGSAACMAKVTAAGAPEEERSMGFPLVSLTQRNRTFAELAYLKGDPCPTDNTSELSTHILFNCNMRAGRGQPVLRSVEDCAYRFEWETNVFCPPHECTFSADTCDLVHDELGRRFNFKSAPFTKDGKIEIDYNATKMSVNICGAHRKAMTDYSQALVNIFFTHESPNCGREGTMNVQIRLICSDQTESSSTISSDQQCNLLYVQRTPSICEFLSLGATQQNFESNGSTSSSTSSSSTSTTTSTTTQASPAGKPTKAATSTTTTTVGPDPAATPIGPTASVGTILGAILSVTFCVTCLGLLAFSPARRQRIRRLFRRSNSAVRYSRVQSNEEANLLLEPNGEFTESDDDMLL
# Key:
# Experiment in all cases: glycan array binding signal (z-score within array); higher = stronger binding
# Conditions in all cases: glycan notation: IUPAC condensed, linker removed
# Fuc(a1-2)Gal = target: Fuc(a1-2)Gal
# In short: (§1)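 The Consortium for Functional Glycomics database supplied 3228 glycan arrays, of which those lacking an available protein sequence were dropped. The binding signal, a within-array Z-score, was averaged across arrays of the same protein sequence and across linkers. Negative scores can be read as non-binding.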
# Fuc(a1-2)Gal(b1-3)GalNAc = target: Fuc(a1-2)Gal(b1-3)GalNAc
# In short: as §1
# [1] = target: Fuc(a1-2)Gal(b1-3)GalNAc(a1-3)[Fuc(a1-2)]Gal(b1-4)Glc
# In short: as §1
# [2] = target: Fuc(a1-2)Gal(b1-3)GalNAc(a1-3)[Fuc(a1-2)]Gal(b1-4)GlcNAc
# In short: as §1
# [3] = target: Fuc(a1-2)Gal(b1-3)GalNAc(b1-3)Gal
# In short: as §1
# [4] = target: Fuc(a1-2)Gal(b1-3)GalNAc(b1-3)Gal(a1-4)Gal(b1-4)Glc
# In short: as §1
# [5] = target: Fuc(a1-2)Gal(b1-3)GalNAc(b1-4)[Neu5Ac(a2-3)]Gal(b1-4)Glc
# In short: as §1
# Fuc(a1-2)Gal(b1-3)GlcNAc = target: Fuc(a1-2)Gal(b1-3)GlcNAc
# In short: as §1
# [6] = target: Fuc(a1-2)Gal(b1-3)GlcNAc(b1-2)Man(a1-3)[Fuc(a1-2)Gal(b1-3)GlcNAc(b1-2)Man(a1-6)]Man(b1-4)GlcNAc(b1-4)GlcNAc
# In short: as §1
# [7] = target: Fuc(a1-2)Gal(b1-3)GlcNAc(b1-3)Gal(b1-4)Glc
# In short: as §1
# [8] = target: Fuc(a1-2)Gal(b1-3)GlcNAc(b1-3)[Fuc(a1-3)[Gal(b1-4)]GlcNAc(b1-6)]Gal(b1-4)Glc
# In short: as §1
# [9] = target: Fuc(a1-2)Gal(b1-3)[Fuc(a1-4)]GlcNAc
# In short: as §1
# [10] = target: Fuc(a1-2)Gal(b1-3)[Fuc(a1-4)]GlcNAc(b1-2)Man(a1-3)[Fuc(a1-2)Gal(b1-3)[Fuc(a1-4)]GlcNAc(b1-2)Man(a1-6)]Man(b1-4)GlcNAc(b1-4)GlcNAc
# In short: as §1
# [11] = target: Fuc(a1-2)Gal(b1-3)[Fuc(a1-4)]GlcNAc(b1-3)[Fuc(a1-3)[Gal(b1-4)]GlcNAc(b1-6)]Gal(b1-4)Glc
# In short: as §1
# [12] = target: Fuc(a1-2)Gal(b1-3)[Fuc(a1-4)]GlcNAc(b1-3)[Gal(b1-4)GlcNAc(b1-6)]Gal(b1-4)Glc
# In short: as §1
# Fuc(a1-2)Gal(b1-4)Glc = target: Fuc(a1-2)Gal(b1-4)Glc
# In short: as §1
# Fuc(a1-2)Gal(b1-4)Glc6S = target: Fuc(a1-2)Gal(b1-4)Glc6S
# In short: as §1
# Fuc(a1-2)Gal(b1-4)GlcNAc = target: Fuc(a1-2)Gal(b1-4)GlcNAc
# In short: as §1
# [13] = target: Fuc(a1-2)Gal(b1-4)GlcNAc(b1-2)Man(a1-3)[Fuc(a1-2)Gal(b1-4)GlcNAc(b1-2)Man(a1-6)]Man(b1-4)GlcNAc(b1-4)GlcNAc
# In short: as §1
# [14] = target: Fuc(a1-2)Gal(b1-4)GlcNAc(b1-3)Gal(b1-4)GlcNAc
# In short: as §1
# [15] = target: Fuc(a1-2)Gal(b1-4)GlcNAc(b1-3)Gal(b1-4)GlcNAc(b1-3)Gal(b1-4)GlcNAc
# In short: as §1
# [16] = target: Fuc(a1-2)Gal(b1-4)GlcNAc(b1-3)GalNAc
# In short: as §1
# [17] = target: Fuc(a1-2)Gal(b1-4)GlcNAc6S
# In short: as §1
# [18] = target: Fuc(a1-2)Gal(b1-4)[Fuc(a1-3)]GlcNAc
# In short: as §1
# [19] = target: Fuc(a1-2)Gal(b1-4)[Fuc(a1-3)]GlcNAc(b1-2)Man(a1-3)[Fuc(a1-2)Gal(b1-4)[Fuc(a1-3)]GlcNAc(b1-2)Man(a1-6)]Man(b1-4)GlcNAc(b1-4)GlcNAc
# In short: as §1
# [20] = target: Fuc(a1-2)Gal(b1-4)[Fuc(a1-3)]GlcNAc(b1-3)Gal(b1-4)[Fuc(a1-3)]GlcNAc
# In short: as §1
# [21] = target: Fuc(a1-2)Gal(b1-4)[Fuc(a1-3)]GlcNAc(b1-3)Gal(b1-4)[Fuc(a1-3)]GlcNAc(b1-3)Gal(b1-4)[Fuc(a1-3)]GlcNAc
# In short: as §1
# Fuc(a1-2)Gal6S(b1-4)Glc = target: Fuc(a1-2)Gal6S(b1-4)Glc
# In short: as §1
# [22] = target: Fuc(a1-2)Gal6S(b1-4)Glc6S
# In short: as §1
# [23] = target: Fuc(a1-2)Gal6S(b1-4)GlcNAc
# In short: as §1
binder,measurement,setting,value
B1,glycan array binding signal (z-score),Fuc(a1-2)Gal,0.631
same,glycan array binding signal (z-score),Fuc(a1-2)Gal(b1-3)GalNAc,0.166
same,glycan array binding signal (z-score),[1],-0.866
same,glycan array binding signal (z-score),[2],0.063
same,glycan array binding signal (z-score),[3],2.1
same,glycan array binding signal (z-score),[4],-0.188
same,glycan array binding signal (z-score),[5],-0.469
same,glycan array binding signal (z-score),Fuc(a1-2)Gal(b1-3)GlcNAc,-0.642
same,glycan array binding signal (z-score),[6],0.555
same,glycan array binding signal (z-score),[7],-0.631
same,glycan array binding signal (z-score),[8],-0.935
same,glycan array binding signal (z-score),[9],0.026
same,glycan array binding signal (z-score),[10],-1.26
same,glycan array binding signal (z-score),[11],0.297
same,glycan array binding signal (z-score),[12],-0.354
same,glycan array binding signal (z-score),Fuc(a1-2)Gal(b1-4)Glc,-1.18
same,glycan array binding signal (z-score),Fuc(a1-2)Gal(b1-4)Glc6S,0.589
same,glycan array binding signal (z-score),Fuc(a1-2)Gal(b1-4)GlcNAc,-0.13
same,glycan array binding signal (z-score),[13],-0.442
same,glycan array binding signal (z-score),[14],0.534
same,glycan array binding signal (z-score),[15],1.83
same,glycan array binding signal (z-score),[16],2.32
same,glycan array binding signal (z-score),[17],-1.14
same,glycan array binding signal (z-score),[18],-0.058
same,glycan array binding signal (z-score),[19],-1.22
same,glycan array binding signal (z-score),[20],0.045
same,glycan array binding signal (z-score),[21],-0.388
same,glycan array binding signal (z-score),Fuc(a1-2)Gal6S(b1-4)Glc,1.55
same,glycan array binding signal (z-score),[22],-1.07
same,glycan array binding signal (z-score),[23],-0.168

# Quoted at random: two records from the list, in no set order.
binder,measurement,setting,value
B1,glycan array binding signal (z-score),Fuc(a1-2)Gal,0.631
same,glycan array binding signal (z-score),[14],0.534
